According to article PMC8353527:
These are yes or no findings as the source states them, for the method shown. Binding seen in cells or lysates may run through a third protein. Some results given as binding are weak or reduced against the parent protein; the word gives no strength. For part of these data: Where a sequence is shown, tags or fusion partners need not be part of it. One block for each substance: values may come before it.

The chains behind the UniProt entries cited, without tags or fusion partners. Where a name states a change or a piece, a line headed by the entry shows the natural chain unless it says otherwise.
UniProt Q9UNF0: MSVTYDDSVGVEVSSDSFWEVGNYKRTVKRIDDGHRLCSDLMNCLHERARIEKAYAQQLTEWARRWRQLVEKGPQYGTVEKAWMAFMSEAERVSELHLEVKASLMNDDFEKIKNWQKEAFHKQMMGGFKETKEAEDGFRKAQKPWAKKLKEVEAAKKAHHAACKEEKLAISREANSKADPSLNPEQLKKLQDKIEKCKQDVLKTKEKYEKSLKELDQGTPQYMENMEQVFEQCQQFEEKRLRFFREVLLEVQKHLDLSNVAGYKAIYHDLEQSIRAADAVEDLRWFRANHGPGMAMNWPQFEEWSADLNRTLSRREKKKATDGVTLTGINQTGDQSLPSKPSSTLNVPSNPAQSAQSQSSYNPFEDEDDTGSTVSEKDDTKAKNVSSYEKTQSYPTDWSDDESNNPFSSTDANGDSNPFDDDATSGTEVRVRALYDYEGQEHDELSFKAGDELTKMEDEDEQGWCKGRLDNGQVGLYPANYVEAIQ
UniProt Q99732: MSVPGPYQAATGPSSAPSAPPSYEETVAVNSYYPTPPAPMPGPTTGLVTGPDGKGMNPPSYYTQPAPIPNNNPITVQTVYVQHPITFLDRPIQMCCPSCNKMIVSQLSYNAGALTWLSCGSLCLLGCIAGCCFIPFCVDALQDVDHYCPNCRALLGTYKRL

Tests used:
Assay in all cases: co-IP; HEK293T cells co-transfected; post-nuclear lysate in 10 mM Tris-HCl pH 7.4, 140 mM NaCl, 0.1% Triton X-100 incubated overnight with GFP-Trap resin, washed three times, western blot
[1] = target: T1, CDIP1 (cell death involved p53 target 1) (human) (UniProt Q9H305)
T1 sequence: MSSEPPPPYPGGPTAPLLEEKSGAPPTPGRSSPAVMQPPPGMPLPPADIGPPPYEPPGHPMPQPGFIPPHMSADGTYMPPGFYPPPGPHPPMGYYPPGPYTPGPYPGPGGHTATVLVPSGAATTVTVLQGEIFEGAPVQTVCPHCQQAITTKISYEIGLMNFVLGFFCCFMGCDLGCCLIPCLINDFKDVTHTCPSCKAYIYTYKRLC

GFP–EHD1 = target: T2, GFP–EHD1 (UniProt Q9H4M9)
T2 sequence: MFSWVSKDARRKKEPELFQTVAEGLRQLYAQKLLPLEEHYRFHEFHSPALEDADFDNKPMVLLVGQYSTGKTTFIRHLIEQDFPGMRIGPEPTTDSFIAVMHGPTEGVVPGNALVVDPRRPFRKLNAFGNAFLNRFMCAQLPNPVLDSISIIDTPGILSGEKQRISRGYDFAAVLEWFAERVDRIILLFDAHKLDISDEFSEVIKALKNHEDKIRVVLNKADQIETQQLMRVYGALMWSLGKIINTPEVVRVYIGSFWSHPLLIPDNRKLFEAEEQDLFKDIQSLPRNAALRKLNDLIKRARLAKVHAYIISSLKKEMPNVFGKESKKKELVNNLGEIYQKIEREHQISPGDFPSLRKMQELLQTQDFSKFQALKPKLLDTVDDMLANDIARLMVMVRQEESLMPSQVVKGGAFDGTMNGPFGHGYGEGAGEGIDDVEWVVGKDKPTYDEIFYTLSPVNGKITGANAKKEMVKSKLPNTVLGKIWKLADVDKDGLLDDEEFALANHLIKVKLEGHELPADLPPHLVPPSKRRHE

GFP–Pacsin2 = GFP–Pacsin2 (UniProt Q9UNF0)

Substance: LITAF (construct of the co-immunoprecipitation with CDIP1, Fig. S5A) (from UniProt Q99732 1-161)
binding [1]: binds

binding (GFP–EHD1): binds
Substance: Myc-LITAF (LPS-induced TNF-activating factor) (from UniProt Q99732 1-161)

binding (GFP–Pacsin2): binds
Substance: V5–LITAF (LPS-induced TNF-activating factor) (from UniProt Q99732 1-161)
